Measurements taken from article PMC8532962 (Antibiotics, 2021).

Experiment: Helical structure by circular dichroism
Type: physicochemical
Details: CD, 25 °C, peptide 100 μg/mL; for [θ]222 50% TFE / [θ]222 Water: 1 mm cell, average of three scans
[1] = calculated from [θ]222 with 0% = −2340 and 100% = −30,300

Row | SMILES | [θ]222 50% TFE (50% TFE in water) | % Helix 50% TFE (50% TFE in water, calculated from [θ]222 with 0% = −2340 and 100% = −30,300) [%] | [θ]222 Water [deg · cm^2 · dmol^−1] | % Helix Water [1] [%]
1 | CC[C@H](C)[C@H](N)C(=O)N[C@@H](CC(N)=O)C(=O)N[C@@H](CCCCN)C(=O)N[C@@H](CC(C)C)C(=O)N[C@H](C(=O)N[C@H](C(=O)N[C@@H](CCCCN)C(=O)N[C@H](C(=O)NCC(=O)N[C@@H](CCCCN)C(=O)N[C@H](C(=O)N[C@H](C(=O)N[C@@H](CO)C(=O)N[C@@H](CC(C)C)C(N)=O)C(C)C)[C@@H](C)CC)C(C)C)[C@@H](C)CC)C(C)C [EMP-AF-KV] (H-INKLVIKVGKIVSL-NH2) | −13,692.93 deg · cm^2 · dmol^−1 | 37.47 | −4719.43 | 7.85
2 | CC[C@H](C)[C@H](N)C(=O)N[C@@H](CC(N)=O)C(=O)N[C@@H](CC(C)C)C(=O)N[C@@H](CC(C)C)C(=O)N[C@@H](CCCCN)C(=O)N[C@H](C(=O)N[C@@H](C)C(=O)N[C@@H](CCCCN)C(=O)NCC(=O)N[C@H](C(=O)N[C@H](C(=O)N[C@@H](CCCCN)C(=O)N[C@@H](CO)C(=O)N[C@@H](CC(C)C)C(N)=O)[C@@H](C)CC)[C@@H](C)CC)[C@@H](C)CC [EMP-AF-OR] (H-INLLKIAKGIIKSL-NH2) | −47,630.55 deg · cm^2 · dmol^−1 |  | −7711.94 | 17.73

Peptide text beside a SMILES is read from it.
